Measurements from publication PMC4196160.
These are yes or no findings as the source states them, for the method shown. Binding seen in cells or lysates may run through a third protein. Some results given as binding are weak or reduced against the parent protein; the word gives no strength.

By UniProt entry, the sequences of proteins in these tests, tags left out.
UniProt Q9UBF6: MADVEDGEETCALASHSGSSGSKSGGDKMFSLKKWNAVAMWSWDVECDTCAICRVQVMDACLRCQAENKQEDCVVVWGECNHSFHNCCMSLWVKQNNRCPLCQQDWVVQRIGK
UniProt P46934: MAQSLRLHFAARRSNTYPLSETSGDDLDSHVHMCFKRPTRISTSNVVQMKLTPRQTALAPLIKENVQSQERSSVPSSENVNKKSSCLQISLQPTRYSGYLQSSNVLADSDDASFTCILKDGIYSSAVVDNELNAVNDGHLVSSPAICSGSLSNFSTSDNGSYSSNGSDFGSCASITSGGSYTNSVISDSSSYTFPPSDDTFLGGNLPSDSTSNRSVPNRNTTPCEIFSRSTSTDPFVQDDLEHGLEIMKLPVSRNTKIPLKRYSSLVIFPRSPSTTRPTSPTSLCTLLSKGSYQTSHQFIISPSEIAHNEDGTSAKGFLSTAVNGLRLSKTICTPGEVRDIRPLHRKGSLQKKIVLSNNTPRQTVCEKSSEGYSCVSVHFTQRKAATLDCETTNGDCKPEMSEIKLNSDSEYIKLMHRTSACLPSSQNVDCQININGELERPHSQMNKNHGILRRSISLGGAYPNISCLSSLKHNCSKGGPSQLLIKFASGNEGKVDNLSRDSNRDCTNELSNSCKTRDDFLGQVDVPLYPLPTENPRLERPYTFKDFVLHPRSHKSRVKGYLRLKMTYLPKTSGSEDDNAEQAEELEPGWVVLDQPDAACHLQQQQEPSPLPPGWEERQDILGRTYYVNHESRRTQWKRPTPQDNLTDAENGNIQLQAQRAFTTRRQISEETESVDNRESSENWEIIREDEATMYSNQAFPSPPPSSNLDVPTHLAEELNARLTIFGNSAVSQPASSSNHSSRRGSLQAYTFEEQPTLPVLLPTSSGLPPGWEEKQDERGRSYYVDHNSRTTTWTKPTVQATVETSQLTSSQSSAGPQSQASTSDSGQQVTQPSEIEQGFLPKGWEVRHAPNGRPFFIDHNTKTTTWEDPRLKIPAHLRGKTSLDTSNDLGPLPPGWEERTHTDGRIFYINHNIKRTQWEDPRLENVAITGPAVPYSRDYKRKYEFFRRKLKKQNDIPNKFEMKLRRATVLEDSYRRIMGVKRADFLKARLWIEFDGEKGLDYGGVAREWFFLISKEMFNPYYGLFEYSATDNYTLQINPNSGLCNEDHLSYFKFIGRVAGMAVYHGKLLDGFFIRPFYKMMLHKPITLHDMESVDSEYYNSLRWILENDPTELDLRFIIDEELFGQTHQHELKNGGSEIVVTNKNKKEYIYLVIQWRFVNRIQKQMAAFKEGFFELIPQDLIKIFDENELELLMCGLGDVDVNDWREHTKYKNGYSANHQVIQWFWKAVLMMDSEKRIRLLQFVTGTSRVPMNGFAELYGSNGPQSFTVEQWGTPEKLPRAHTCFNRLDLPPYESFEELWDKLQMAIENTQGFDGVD
UniProt Q93034: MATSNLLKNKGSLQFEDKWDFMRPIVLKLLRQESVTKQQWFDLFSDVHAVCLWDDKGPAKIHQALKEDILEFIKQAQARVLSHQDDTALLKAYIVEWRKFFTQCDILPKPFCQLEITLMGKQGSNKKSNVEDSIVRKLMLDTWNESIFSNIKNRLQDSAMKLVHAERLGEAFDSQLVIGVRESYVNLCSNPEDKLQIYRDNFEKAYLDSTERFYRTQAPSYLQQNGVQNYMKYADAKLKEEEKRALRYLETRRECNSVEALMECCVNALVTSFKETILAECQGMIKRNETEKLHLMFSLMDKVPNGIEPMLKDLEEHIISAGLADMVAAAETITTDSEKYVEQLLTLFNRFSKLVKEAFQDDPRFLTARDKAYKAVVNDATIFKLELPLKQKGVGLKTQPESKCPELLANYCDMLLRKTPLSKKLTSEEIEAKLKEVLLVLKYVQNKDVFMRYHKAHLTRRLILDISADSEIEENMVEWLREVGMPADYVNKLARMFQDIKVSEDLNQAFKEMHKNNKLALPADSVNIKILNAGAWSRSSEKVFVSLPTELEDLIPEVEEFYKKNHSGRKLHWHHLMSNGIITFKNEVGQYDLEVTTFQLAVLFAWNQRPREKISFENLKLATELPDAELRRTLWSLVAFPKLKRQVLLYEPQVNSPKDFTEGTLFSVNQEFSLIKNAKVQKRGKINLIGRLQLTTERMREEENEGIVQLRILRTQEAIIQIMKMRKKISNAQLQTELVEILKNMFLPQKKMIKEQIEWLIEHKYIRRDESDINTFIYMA

Tests used:
[1] = target: FLAG-SAG (Sensitive to apoptosis gene, full length) (UniProt Q9UBF6); assay: co-IP; 293 cells transiently transfected with FLAG-SAG or FLAG-ROC1 (pCDNA3.1 vector control); lysates immunoprecipitated with FLAG antibody/beads, blot for endogenous NEDD4-1
[2] = target: endogenous NEDD4-1 (H1299 cells) (human (endogenous in H1299)) (UniProt P46934); assay: co-IP; endogenous proteins; H1299 whole cell extracts, untreated or 10 uM MG132 for 4 hrs; pre-cleared, overnight at 4 C with antibody against NEDD4-1 or SAG, IgG control; Western blotting
[3] = target: endogenous SAG (H1299 cells) (human (endogenous in H1299)) (UniProt Q9UBF6); assay: as above

Row | binding [3] | Substance | other results
1 | – | endogenous NEDD4-1 (293 cells) (from UniProt P46934 1-1319) | binding [1]: binds
2 | – | endogenous SAG (H1299 cells) (from UniProt Q9UBF6 1-113) | binding [2]: binds
3 | binds | endogenous CUL-5 (H1299 cells) (from UniProt Q93034 1-780) | –
4 | binds | endogenous NEDD4-1 (H1299 cells) (from UniProt P46934 1-1319) | –
